Results: US10046060B2, “Co-administration of an agent linked to an internalization peptide with an anti-inflammatory” (NoNO Inc., priority 2007, dated 2018)
For some of these results: At least one peptide structure holds a part that was inferred or is arguable (an end, a ring closure or a residue). For some of these results: At least one structure is not confirmed: it was looked up by name or label, or the drawing left a doubt. Ends that are not written are not given here.

Columns and labels:
rats = test: Mean arterial pressure (MAP) in rats after Tat peptides with or without anti-inflammatory agents
rats, 3PVO model = test: Three pial vessel occlusion model of ischemia (3PVO), Rv-Tat-NR2B9c vs Tat-NR2B9c; type: in vivo, rat; conditions: 3 μM/kg i.v. one hour after 3PVO, infarct at 24 hours, FIG. 14

CNC(=C[N+](=O)[O-])NCCSCc1ccc(CN(C)C)o1 [Ranitidine]
Effect on decline of MAP due to Tat-NR2B9c (rats; Ranitidine only): slight and not statistically significant

C[C@@H]1C[C@H]2[C@@H]3CCC4=CC(=O)C=C[C@]4(C)[C@@]3(F)[C@@H](O)C[C@]2(C)[C@@]1(O)C(=O)CO [Dexamethasone]
Effect on decline in blood pressure due to Tat-NR2B9c (rats; dexamethasone 6 mg/kg about ten min before Tat-NR2B9c): not observed to have a significant effect

RRRQRRKKRGYKLSSIESDV [Rv-Tat-NR2B9c]
Reduction of infarcts in the 3PVO model (rats, 3PVO model): as or more effective than Tat-NR2B9c | Reduction of infarcts in the 3PVO model (rats, 3PVO model; listed as Rv-NR2B9c): effective in reducing infarcts
